According to patent US20030017976A1, “Therapeutic properties of liposome-encapsulated immunomodulators” (priority 1998, published 2003):
Some results were stated once for a whole list of compounds, not compound by compound.

System: human blood monocytes
Test: ELISAs for TNF-α, IL-1β and IL-6 in human blood monocytes
Assay type: cell-based
Details: free-form JBT3002 1 ng/ml or MLV-JBT3002 100 nmol/well of 1 mg/300 μmol lipid
Description: Blood-cells buff coats were obtained on the day of collection from the Gulf Coast Regional Blood Center (Houston, Tex.). The buffy coats were diluted with HBSS and layered on to 15 ml of prescreened entotoxin-free lymphocyte separation medium (Ficoll-Hypaque; density: 1.077). After 10 min of centrigugation at 1500×g, the mononuclear fractions were collected, washed once, and resuspended in 20 ml of elutriation medium (2% human albumin-100 U/mi penicillin and 100 μg/ml streptomycin in PBS). Monocyte-rich fractions were isolated by countercurrent elutriation using a JE-6B elutriation rotator (B3eckman) as described in detail previously (Fidler, I. et al. Prog. Clin. Biol. Res. (1989) 288:169). At a speed of 3000 rpm and flow rate of 41 ml/min, the monocyte fraction was obtained; it contained >90-95% monocytes as identified by nonspecific esterase staining morphological examination; they were >95% viable as measured by the trypan blue exclusion test. The cells were incubated in serum-free EMEM for 18 h prior to assays.
After overnight incubation in serum-free EMEM, monocytes plated at the density of 1×10^5/38-mm^2well /200 μl of EMEM (96-well plates) were treated as indicated in the Results section. The culture supernatants were harvested and used immediately or stored at −70° C. […]

## N-hexadecanol-S-[2(R)-3-diodecanoyloxypropyl]-L-cysteinyl-L-alanyl-D-isoglutaminyl-glycyl-taurine sodium salt [JBT3002]
  time of plateau of TNF-α levels: 4 to 8 h
